According to the supplement of paper PMC6143611:
Counter-ions that a name gives are not always drawn. ± gives the uncertainty stated by the source. Some of the results follow. Plates or batches differ in their baseline, so values are only roughly comparable.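 Larvae carried a heat-shock-induced fluorescent stripe in rod outer segments, set at 6 dpf; the shedding distance runs from this stripe to the outer segment tip, measured in confocal stacks, about three fish per compound. The controls got 0.2% DMSO vehicle, and the paper flagged compounds with at least a 20% change against the same-week control and p < 0.001 (Dunnett test on mixed-effects models).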

tested on: Danio rerio larva rod photoreceptor outer segment; assay: rod outer segment shedding distance Ds, difference from same-week DMSO control mean; higher = less outer segment shedding; settings: 20 µM; treatment time: 4 days (6-10 dpf)

SMILES	rod outer segment shedding distance Ds
CNC1CCCN(c2c(F)cc3c(=O)c(C(=O)O)cn(C4CC4)c3c2OC)C1 (stereo not drawn) [Balofloxacin]	-0.05 ± 0.24 um
COc1cc2c(cc1O)CC[C@@H]1[C@@H]2CC[C@]2(C)[C@@H](O)CC[C@@H]12 [2-Methoxyestradiol (2-MeOE2)]	0.19 ± 0.29 um
CCCCN1CCCCC1C(=O)Nc1c(C)cccc1C (stereo not drawn) [Bupivacaine HCl]	0.04 ± 0.27 um
Cc1cnc(Nc2ccc(N3CCN(C)CC3)cc2)nc1Nc1cccc(S(=O)(=O)NC(C)(C)C)c1	-0.08 ± 0.13 um
Cc1nnc(C(C)C)n1C1C[C@H]2CC[C@@H](C1)N2CC[C@H](NC(=O)C1CCC(F)(F)CC1)c1ccccc1 (stereo in doubt) [Maraviroc]	-0.42 ± 0.27 um
Nc1nc(NCCNc2ncc(-n3ccnc3)c(-c3ccc(Cl)cc3Cl)n2)ccc1[N+](=O)[O-]	-0.7 ± 0.11 um
Cc1ccc(-n2[nH]c(C)c(N=Nc3cccc(-c4cccc(C(=O)O)c4)c3O)c2=O)cc1C [Eltrombopag]	-0.52 ± 0.26 um
Nc1ccn([C@@H]2CS[C@H](CO)O2)c(=O)n1 [Lamivudine]	-0.27 ± 0.15 um
CCN1C[C@H](C)n2c(c(O)c3c(=O)n(Cc4ccc(F)c(Cl)c4)nc(C(=O)NC)c32)C1=O	0.47 ± 0.14 um
CN(C/C=C/C#CC(C)(C)C)Cc1cccc2ccccc12 [Terbinafine HCl]	-1.32 ± 0.39 um
CC12CC3CC(C)(C1)CC(N)(C3)C2 [Memantine HCl]	0.13 ± 0.27 um
Cc1cnc(NC(=O)C2=C(O)c3ccccc3S(=O)(=O)N2C)s1 [Meloxicam]	0.18 ± 0.2 um
CC(C)(C)OC(=O)N[C@H]1CCCCC/C=C\[C@@H]2C[C@@]2(C(=O)NS(=O)(=O)C2CC2)NC(=O)[C@@H]2C[C@@H](OC(=O)N3Cc4cccc(F)c4C3)CN2C1=O [Danoprevir (ITMN-191)]	-1.26 ± 0.25 um

Laid out differently: two of the compounds above
Cc1nnc(C(C)C)n1C1C[C@H]2CC[C@@H](C1)N2CC[C@H](NC(=O)C1CCC(F)(F)CC1)c1ccccc1 (stereo in doubt) [Maraviroc]
  rod outer segment shedding distance Ds: -0.42 ± 0.27 um
Nc1nc(NCCNc2ncc(-n3ccnc3)c(-c3ccc(Cl)cc3Cl)n2)ccc1[N+](=O)[O-]
  rod outer segment shedding distance Ds: -0.7 ± 0.11 um
